# Experimental data published in paper PMC4409337, “Immucillins Impair Leishmania (L.) infantum chagasi and Leishmania (L.) amazonensis Multiplication In Vitro” (PLoS ONE, 2015).
# Tested on: Nucleoside hydrolase NH36 of L. (L.) donovani
# Format: biochemical, Leishmania (L.) donovani
# Conditions: for fold increased catalytic rate of NH36 versus NH of Cui et al.: NH36 kcat compared to ref 29 kcat
# Method: BL21DE3 E.coli were transformed with the synthetic plasmid pET 28b encoding the gene of NH36 of Leishmania (L.) donovani (EMBL, Genbank and DDJB data bases, access number AY007193) with a His6tag at the C-terminal. Expression was induced with 0.5 mM IPTG and overnight incubation at 20°C. Purification of NH36 was performed on a column of Ni-NTA Superflow resin (Qiagen, USA) eluted by a stepwise imidazole gradient and monitored by SDS-polyacrylamide gel electrophoresis and protein assay. The extinction coefficient of NH36 is 21.437 mM^-1 cm^-1 at 280 nm, as calculated with the ProtParam program from ExPASy, and was used to estimate protein concentration (http://ca.expasy.org/seqanalref/). The yield of NH36 after purification was 11.87 mg per Liter of bacterial growth culture. Non-specific His-proteins with weak interactions were eluted with 50–100 mM imidazole (S1 Fig). The purified NH36 started to elute with 150 mM imidazole. We used 250 mM of imidazol in elution buffer for purification of NH36.
# Steady-state kinetic rates for NH36 were determined on the substrates inosine, guanosine, adenosine, uridine and cytidine. Hypoxanthine and adenine formation were coupled to xanthine oxidase (12.9 mM^-1 cm^-1 at 293 nm and 15.2 mM^-1 cm^-1 at 305 nm, respectively), and the others were followed by direct uv absorbance changes resulting from cleavage of the N-ribosidic bond. Reaction mixtures contained 50 mM Hepes (pH 7.4), 100 mM NaCl and 5 mM of DTT. One unit, and 0.1 unit of xanthine oxidase (XOD) were used as the coupling enzyme to the adenosine and inosine assays, respectively. Spectral changes for hydrolysis of guanosine, uridine and cytidine were 5.4 mM^-1 cm^-1 at 257 nm,1.8 mM^-1 cm^-1 at 280 nm and 1.8 mM^-1 cm^-1 at 288 nm, respectively. Variable concentrations of substrate and appropriate amounts of purified NH36 were added in all assays. The hydrolysis of nucleosides to bases and ribose was followed by continuous recording of optical absorbance after addition of the enzyme, in a CARY 300 UV-visible spectrophotometer. Control rates with no enzyme addition were subtracted from initial rates. Reactions with substrates were conducted at 25°C using 1 cm path length cuvettes containing 1 mL reaction volumes. Kinetic parameters of NH36 were obtained by fitting initial rates to the Michaelis−Menten equation using GraFit 5 (Erithacus Software).
# [1] = NH36 kcat compared to ref 13 kcat
SMILES,fold increased catalytic rate of NH36 versus NH of L. (L.) major [1],fold decreased catalytic turnover of NH36 versus NH of L. (L.) major [1],fold increased catalytic rate of NH36 versus NH of Cui et al.
Nc1ncnc2c1ncn2[C@@H]1O[C@H](CO)[C@@H](O)[C@H]1O [Adenosine],6 fold,,
Nc1ccn([C@@H]2O[C@H](CO)[C@@H](O)[C@H]2O)c(=O)n1 [Cytidine],36 fold,,
O=c1[nH]cnc2c1ncn2[C@@H]1O[C@H](CO)[C@@H](O)[C@H]1O [Inosine],,11 fold,1.4 fold
O=c1ccn([C@@H]2O[C@H](CO)[C@@H](O)[C@H]2O)c(=O)[nH]1 [Uridine],,,3.6 fold
